Our source for the binding values is publication PMC8436130.

These are yes or no findings as the source states them, for the method shown. In cells and extracts the contact can be indirect. A yes stands for co-enrichment or nearness to the bait. Other partners may have been found. A no says only that the protein was not detected with the bait.

The target in this assay is STimulator of INterferon Genes (STING) fused to GFP, Q86WV6. Briefly: affinity purification with mass spectrometry; nuclear envelopes isolated from HEK293T cells expressing STING-GFP, reversibly cross-linked with ortho-phenanthroline copper, resuspended in RIPA and sonicated, immunoprecipitated with GFP antibodies on Protein A-sepharose, released with 50 mM DTT, tandem mass spectrometry; mock-transfected cells as control. The following applies: remark: other sources report otherwise.

B1: TANK-binding kinase 1 (TBK1), Q9UHD2 1-729 (protein)
chain: MQSTSNHLWLLSDILGQGATANVFRGRHKKTGDLFAIKVFNNISFLRPVDVQMREFEVLKKLNHKNIVKLFAIEEETTTRHKVLIMEFCPCGSLYTVLEEPSNAYGLPESEFLIVLRDVVGGMNHLRENGIVHRDIKPGNIMRVIGEDGQSVYKLTDFGAARELEDDEQFVSLYGTEEYLHPDMYERAVLRKDHQKKYGATVDLWSIGVTFYHAATGSLPFRPFEGPRRNKEVMYKIITGKPSGAISGVQKAENGPIDWSGDMPVSCSLSRGLQVLLTPVLANILEADQEKCWGFDQFFAETSDILHRMVIHVFSLQQMTAHKIYIHSYNTATIFHELVYKQTKIISSNQELIYEGRRLVLEPGRLAQHFPKTTEENPIFVVSREPLNTIGLIYEKISLPKVHPRYDLDGDASMAKAITGVVCYACRIASTLLLYQELMRKGIRWLIELIKDDYNETVHKKTEVVITLDFCIRNIEKTVKVYEKLMKINLEAAELGEISDIHTKLLRLSSSQGTIETSLQDIDSRLSPGGSLADAWAHQEGTHPKDRNVEKLQVLLNCMTEIYYQFKKDKAERRLAYNEEQIHKFDKQKLYYHATKAMTHFTDECVKKYEAFLNKSEEWIRKMLHLRKQLLSLTNQCFDIEEEVSKYQEYTNELQETLPQKMFTASSGIKHTMTPIYPSSNTLVEMTLGMKKLKEEMEGVVKELAENNHILERFGSLTMDGGLRNVDCL
For B1, the binding result is reported as “no binding”.
